Measured values taken from patent US12099068B2, “Biomarkers for graft-versus-host disease” (Incyte Corporation, priority 2018, dated 2024).

Tested on: plasma proteins
Experiment: OLINK proximity extension assay of baseline plasma, CR compared to PD/Death, updated classification, Example 5 (Table 11)
Type: in vivo, human
Conditions: itacitinib 200 or 300 mg QD plus corticosteroids, response at day 28

Molecule | Fold Change, Down-Regulated in CR Compared to PD/Death | Fold Change, Up-Regulated in CR Compared to PD/Death
NEP (protein, UniProt P08473 2-750, looked up) Neprilysin: GKSESQMDITDINTPKPKKKQRWTPLEISLSVLVLLLTIIAVTMIALYATYDDGICKSSDCIKSAARLIQNMDATTEPCTDFFKYACGGWLKRNVIPETSSRYGNFDILRDELEVVLKDVLQEPKTEDIVAVQKAKALYRSCINESAIDSRGGEPLLKLLPDIYGWPVATENWEQKYGASWTAEKAIAQLNSKYGKKVLINLFVGTDDKNSVNHVIHIDQPRLGLPSRDYYECTGIYKEACTAYVDFMISVARLIRQEERLPIDENQLALEMNKVMELEKEIANATAKPEDRNDPMLLYNKMTLAQIQNNFSLEINGKPFSWLNFTNEIMSTVNISITNEEDVVVYAPEYLTKLKPILTKYSARDLQNLMSWRFIMDLVSSLSRTYKESRNAFRKALYGTTSETATWRRCANYVNGNMENAVGRLYVEAAFAGESKHVVEDLIAQIREVFIQTLDDLTWMDAETKKRAEEKALAIKERIGYPDDIVSNDNKLNNEYLELNYKEDEYFENIIQNLKFSQSKQLKKLREKVDKDEWISGAAVVNAFYSSGRNQIVFPAGILQPPFFSAQQSNSLNYGGIGMVIGHEITHGFDDNGRNFNKDGDLVDWWTQQSASNFKEQSQCMVYQYGNFSWDLAGGQHLNGINTLGENIADNGGLGQAYRAYQNYIKKNGEEKLLPGLDLNHKQLFFLNFAQVWCGTYRPEYAVNSIKTDVHSPGNFRIIGTLQNSAEFSEAFHCRKNSYMNPEKKCRVW | −3.4607 | 
PVALB (protein, UniProt P20472 2-110, looked up) Parvalbumin alpha: SMTDLLNAEDIKKAVGAFSATDSFDHKKFFQMVGLKKKSADDVKKVFHMLDKDKSGFIEEDELGFILKGFSPDARDLSAKETKMLMAAGDKDGDGKIGVDEFSTLVAES |  | 2.6266
FAM3B (protein, UniProt P58499 30-235, looked up) Protein FAM3B: ELIPDAPLSSAAYSIRSIGERPVLKAPVPKRQKCDHWTPCPSDTYAYRLLSGGGRSKYAKICFEDNLLMGEQLGNVARGINIAIVNYVTGNVTATRCFDMYEGDNSGPMTKFIQSAAPKSLLFMVTYDDGSTRLNNDAKNAIEALGSKEIRNMKFRSSWVFIAAKGLELPSEIQREKINHSDAKNNRYSGWPAEIQIEGCIPKERS |  | 2.8141
SERPINA5 (protein, UniProt P05154 26-406, looked up) Plasma serine protease …: EMKKRVEDLHVGATVAPSSRRDFTFDLYRALASAAPSQSIFFSPVSISMSLAMLSLGAGSSTKMQILEGLGLNLQKSSEKELHRGFQQLLQELNQPRDGFQLSLGNALFTDLVVDLQDTFVSAMKTLYLADTFPTNFRDSAGAMKQINDYVAKQTKGKIVDLLKNLDSNAVVIMVNYIFFKAKWETSFNHKGTQEQDFYVTSETVVRVPMMSREDQYHYLLDRNLSCRVVGVPYQGNATALFILPSEGKMQQVENGLSEKTLRKWLKMFKKRQLELYLPKFSIEGSYQLEKVLPSLGISNVFTSHADLSGISNHSNIQVSEMVHKAVVEVDESGTRAAAATGTIFTFRSARLNSQRLVFNRPFLMFIVDNNILFLGKVNRP |  | 2.0891
ANG-1 (protein, UniProt Q15389 16-498, looked up) Angiopoietin-1: HIGCSNQRRSPENSGRRYNRIQHGQCAYTFILPEHDGNCRESTTDQYNTNALQRDAPHVEPDFSSQKLQHLEHVMENYTQWLQKLENYIVENMKSEMAQIQQNAVQNHTATMLEIGTSLLSQTAEQTRKLTDVETQVLNQTSRLEIQLLENSLSTYKLEKQLLQQTNEILKIHEKNSLLEHKILEMEGKHKEELDTLKEEKENLQGLVTRQTYIIQELEKQLNRATTNNSVLQKQQLELMDTVHNLVNLCTKEGVLLKGGKREEEKPFRDCADVYQAGFNKSGIYTIYINNMPEPKKVFCNMDVNGGGWTVIQHREDGSLDFQRGWKEYKMGFGNPSGEYWLGNEFIFAITSQRQYMLRIELMDWEGNRAYSQYDRFHIGNEKQNYRLYLKGHTGTAGKQSSLILHGADFSTKDADNDNCMCKCALMLTGGWWFDACGPSNLNGMFYTAGQNHGKLNGIKWHYFKGPSYSLRSTTMMIRPLDF |  | 2.3398
hK14 (protein, UniProt Q9P0G3 41-267, looked up) Kallikrein-14: IIGGHTCTRSSQPWQAALLAGPRRRFLCGGALLSGQWVITAAHCGRPILQVALGKHNLRRWEATQQVLRVVRQVTHPNYNSRTHDNDLMLLQLQQPARIGRAVRPIEVTQACASPGTSCRVSGWGTISSPIARYPASLQCVNINISPDEVCQKAYPRTITPGMVCAGVPQGGKDSCQGDSGGPLVCRGQLQGLVSWGMERCALPGYPGVYTNLCKYRSWIEETMRDK |  | 1.6607
VWC2 (protein, UniProt Q2TAL6 28-325, looked up) Brorin: SPSIPLEKLAQAPEQPGQEKREHASRDGPGRVNELGRPARDEGGSGRDWKSKSGRGLAGREPWSKLKQAWVSQGGGAKAGDLQVRPRGDTPQAEALAAAAQDAIGPELAPTPEPPEEYVYPDYRGKGCVDESGFVYAIGEKFAPGPSACPCLCTEEGPLCAQPECPRLHPRCIHVDTSQCCPQCKERKNYCEFRGKTYQTLEEFVVSPCERCRCEANGEVLCTVSACPQTECVDPVYEPDQCCPICKNGPNCFAETAVIPAGREVKTDECTICHCTYEEGTWRIERQAMCTRHECRQM |  | 1.7842
SCGB3A1 (protein, UniProt Q96QR1 21-104, looked up) Secretoglobin family 3A …: FLVGSAKPVAQPVAALESAAEAGAGTLANPLGTLNPLKLLLSSLGIPVNHLIEGSQKCVAELGPQAVGAVKALKALLGALTVFG |  | 3.1352
SLAMF8 (protein, UniProt Q9P0V8 23-285, looked up) SLAM family member 8: AQVLSKVGGSVLLVAARPPGFQVREAIWRSLWPSEELLATFFRGSLETLYHSRFLGRAQLHSNLSLELGPLESGDSGNFSVLMVDTRGQPWTQTLQLKVYDAVPRPVVQVFIAVERDAQPSKTCQVFLSCWAPNISEITYSWRRETTMDFGMEPHSLFTDGQVLSISLGPGDRDVAYSCIVSNPVSWDLATVTPWDSCHHEAAPGKASYKDVLLVVVPVSLLLMLVTLFSAWHWCPCSGKKKKDVHADRVGPETENPLVQDLP | −3.2642 | 
SCGB3A2 (protein, UniProt Q96PL1 22-93, looked up) Secretoglobin family 3A …: FLINKVPLPVDKLAPLPLDNILPFMDPLKLLLKTLGISVEHLVEGLRKCVNELGPEASEAVKKLLEALSHLV |  | 1.8338
CRTAM (protein, UniProt O95727 18-393, looked up) Cytotoxic and regulatory …: SLTNHTETITVEEGQTLTLKCVTSLRKNSSLQWLTPSGFTIFLNEYPALKNSKYQLLHHSANQLSITVPNVTLQDEGVYKCLHYSDSVSTKEVKVIVLATPFKPILEASVIRKQNGEEHVVLMCSTMRSKPPPQITWLLGNSMEVSGGTLHEFETDGKKCNTTSTLIIHTYGKNSTVDCIIRHRGLQGRKLVAPFRFEDLVTDEETASDALERNSLSSQDPQQPTSTVSVTEDSSTSEIDKEEKEQTTQDPDLTTEANPQYLGLARKKSGILLLTLVSFLIFILFIIVQLFIMKLRKAHVIWKKENEVSEHTLESYRSRSNNEETSSEEKNGQSSHPMRCMNYITKLYSEAKTKRKENVQHSKLEEKHIQVPESIV | −3.2086 | 
